# Measured values from the supplement of paper PMC7666118.
# Chains of the proteins cited; added tags and fusions are not shown. Lines headed by an entry give the natural chain unless they say otherwise; changes in a name come on top.
# UniProt Q5ST30: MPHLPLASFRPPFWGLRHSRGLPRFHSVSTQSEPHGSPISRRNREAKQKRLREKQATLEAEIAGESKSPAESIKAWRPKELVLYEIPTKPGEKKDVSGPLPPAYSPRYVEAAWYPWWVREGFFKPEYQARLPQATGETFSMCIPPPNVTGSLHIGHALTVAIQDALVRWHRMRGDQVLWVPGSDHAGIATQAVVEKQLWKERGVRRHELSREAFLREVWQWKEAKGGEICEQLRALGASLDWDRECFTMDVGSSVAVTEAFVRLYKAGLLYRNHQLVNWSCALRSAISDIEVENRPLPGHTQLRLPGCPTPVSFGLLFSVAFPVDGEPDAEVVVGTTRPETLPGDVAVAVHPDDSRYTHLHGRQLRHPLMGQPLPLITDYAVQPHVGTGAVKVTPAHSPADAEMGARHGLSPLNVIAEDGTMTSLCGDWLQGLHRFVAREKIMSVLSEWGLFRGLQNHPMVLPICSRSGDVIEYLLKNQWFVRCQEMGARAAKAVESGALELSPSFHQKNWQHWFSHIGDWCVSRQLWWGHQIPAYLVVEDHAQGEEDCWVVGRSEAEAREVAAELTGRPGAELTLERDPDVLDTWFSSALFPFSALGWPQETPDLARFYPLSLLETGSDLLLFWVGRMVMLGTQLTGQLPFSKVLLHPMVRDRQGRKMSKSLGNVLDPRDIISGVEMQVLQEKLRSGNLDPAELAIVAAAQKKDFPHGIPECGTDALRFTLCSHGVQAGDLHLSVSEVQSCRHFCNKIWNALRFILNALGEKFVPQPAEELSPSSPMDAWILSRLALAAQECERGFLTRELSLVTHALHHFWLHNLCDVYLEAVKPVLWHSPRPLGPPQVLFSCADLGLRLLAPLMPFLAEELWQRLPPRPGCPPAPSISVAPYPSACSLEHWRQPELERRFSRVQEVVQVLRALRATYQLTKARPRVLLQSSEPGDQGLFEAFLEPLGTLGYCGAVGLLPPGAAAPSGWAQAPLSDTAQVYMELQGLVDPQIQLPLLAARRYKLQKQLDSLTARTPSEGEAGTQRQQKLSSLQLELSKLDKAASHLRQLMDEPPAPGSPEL
# UniProt Q9UPU5: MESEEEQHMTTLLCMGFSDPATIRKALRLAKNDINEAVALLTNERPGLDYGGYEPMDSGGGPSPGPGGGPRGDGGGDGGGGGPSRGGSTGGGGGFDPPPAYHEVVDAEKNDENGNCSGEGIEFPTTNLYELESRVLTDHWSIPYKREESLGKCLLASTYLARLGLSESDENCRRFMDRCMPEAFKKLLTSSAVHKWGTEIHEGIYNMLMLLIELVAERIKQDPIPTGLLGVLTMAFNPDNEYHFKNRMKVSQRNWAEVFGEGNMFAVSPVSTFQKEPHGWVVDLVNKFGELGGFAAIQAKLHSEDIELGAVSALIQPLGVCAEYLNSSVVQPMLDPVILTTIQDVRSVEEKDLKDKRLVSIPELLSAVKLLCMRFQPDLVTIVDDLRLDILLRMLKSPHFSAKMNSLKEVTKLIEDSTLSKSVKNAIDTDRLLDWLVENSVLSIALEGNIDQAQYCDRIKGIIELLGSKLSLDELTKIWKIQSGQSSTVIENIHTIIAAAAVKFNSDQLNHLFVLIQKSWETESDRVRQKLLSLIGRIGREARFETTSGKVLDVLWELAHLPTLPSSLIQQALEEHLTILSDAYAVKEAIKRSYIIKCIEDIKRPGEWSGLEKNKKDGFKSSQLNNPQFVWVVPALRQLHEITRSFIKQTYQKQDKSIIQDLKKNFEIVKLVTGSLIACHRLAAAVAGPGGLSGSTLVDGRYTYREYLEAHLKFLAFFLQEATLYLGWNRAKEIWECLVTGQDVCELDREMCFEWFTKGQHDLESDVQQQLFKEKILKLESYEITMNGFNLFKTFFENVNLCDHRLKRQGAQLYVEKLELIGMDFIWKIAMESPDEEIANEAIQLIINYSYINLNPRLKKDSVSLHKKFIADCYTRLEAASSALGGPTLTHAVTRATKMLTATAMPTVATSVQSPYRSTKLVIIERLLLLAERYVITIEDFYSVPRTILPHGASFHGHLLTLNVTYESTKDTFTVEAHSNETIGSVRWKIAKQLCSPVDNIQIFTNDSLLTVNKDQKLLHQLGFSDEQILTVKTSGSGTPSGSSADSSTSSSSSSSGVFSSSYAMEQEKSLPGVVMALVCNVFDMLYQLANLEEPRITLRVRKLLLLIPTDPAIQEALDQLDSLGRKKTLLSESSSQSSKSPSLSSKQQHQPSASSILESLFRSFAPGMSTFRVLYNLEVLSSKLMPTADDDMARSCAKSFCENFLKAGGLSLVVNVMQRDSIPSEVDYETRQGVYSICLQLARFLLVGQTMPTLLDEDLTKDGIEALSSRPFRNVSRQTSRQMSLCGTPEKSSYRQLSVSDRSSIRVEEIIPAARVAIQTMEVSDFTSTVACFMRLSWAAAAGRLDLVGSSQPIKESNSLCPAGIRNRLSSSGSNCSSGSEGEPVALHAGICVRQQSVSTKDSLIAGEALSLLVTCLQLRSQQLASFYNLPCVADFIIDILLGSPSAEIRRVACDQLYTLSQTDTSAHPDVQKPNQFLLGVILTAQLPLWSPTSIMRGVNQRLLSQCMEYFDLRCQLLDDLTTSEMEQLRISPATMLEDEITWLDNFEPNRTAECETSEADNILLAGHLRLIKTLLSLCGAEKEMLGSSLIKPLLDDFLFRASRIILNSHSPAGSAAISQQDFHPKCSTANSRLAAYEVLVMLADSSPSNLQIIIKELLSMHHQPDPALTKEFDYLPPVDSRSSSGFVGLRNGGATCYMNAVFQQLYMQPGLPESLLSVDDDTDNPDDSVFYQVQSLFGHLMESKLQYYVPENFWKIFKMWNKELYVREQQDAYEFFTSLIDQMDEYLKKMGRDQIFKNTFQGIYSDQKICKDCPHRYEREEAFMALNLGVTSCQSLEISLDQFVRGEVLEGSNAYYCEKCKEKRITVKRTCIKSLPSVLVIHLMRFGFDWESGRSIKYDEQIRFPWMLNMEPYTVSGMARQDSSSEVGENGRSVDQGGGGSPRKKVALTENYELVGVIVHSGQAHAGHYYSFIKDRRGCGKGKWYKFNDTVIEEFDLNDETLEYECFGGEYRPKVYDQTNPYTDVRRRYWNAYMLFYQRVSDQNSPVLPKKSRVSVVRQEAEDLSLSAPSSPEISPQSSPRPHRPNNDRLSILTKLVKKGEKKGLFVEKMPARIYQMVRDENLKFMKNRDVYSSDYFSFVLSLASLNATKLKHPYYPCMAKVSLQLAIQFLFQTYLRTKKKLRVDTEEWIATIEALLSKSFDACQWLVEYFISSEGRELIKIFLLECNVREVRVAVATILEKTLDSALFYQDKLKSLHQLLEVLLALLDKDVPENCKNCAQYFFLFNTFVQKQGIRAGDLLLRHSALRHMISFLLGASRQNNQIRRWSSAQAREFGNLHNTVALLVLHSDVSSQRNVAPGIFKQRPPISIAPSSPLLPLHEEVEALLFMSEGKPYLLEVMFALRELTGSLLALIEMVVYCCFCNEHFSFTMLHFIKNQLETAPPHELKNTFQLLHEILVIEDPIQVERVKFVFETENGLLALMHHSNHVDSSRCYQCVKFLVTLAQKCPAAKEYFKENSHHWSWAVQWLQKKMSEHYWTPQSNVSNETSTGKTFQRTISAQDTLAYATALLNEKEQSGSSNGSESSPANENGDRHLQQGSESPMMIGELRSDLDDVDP
# UniProt O95625: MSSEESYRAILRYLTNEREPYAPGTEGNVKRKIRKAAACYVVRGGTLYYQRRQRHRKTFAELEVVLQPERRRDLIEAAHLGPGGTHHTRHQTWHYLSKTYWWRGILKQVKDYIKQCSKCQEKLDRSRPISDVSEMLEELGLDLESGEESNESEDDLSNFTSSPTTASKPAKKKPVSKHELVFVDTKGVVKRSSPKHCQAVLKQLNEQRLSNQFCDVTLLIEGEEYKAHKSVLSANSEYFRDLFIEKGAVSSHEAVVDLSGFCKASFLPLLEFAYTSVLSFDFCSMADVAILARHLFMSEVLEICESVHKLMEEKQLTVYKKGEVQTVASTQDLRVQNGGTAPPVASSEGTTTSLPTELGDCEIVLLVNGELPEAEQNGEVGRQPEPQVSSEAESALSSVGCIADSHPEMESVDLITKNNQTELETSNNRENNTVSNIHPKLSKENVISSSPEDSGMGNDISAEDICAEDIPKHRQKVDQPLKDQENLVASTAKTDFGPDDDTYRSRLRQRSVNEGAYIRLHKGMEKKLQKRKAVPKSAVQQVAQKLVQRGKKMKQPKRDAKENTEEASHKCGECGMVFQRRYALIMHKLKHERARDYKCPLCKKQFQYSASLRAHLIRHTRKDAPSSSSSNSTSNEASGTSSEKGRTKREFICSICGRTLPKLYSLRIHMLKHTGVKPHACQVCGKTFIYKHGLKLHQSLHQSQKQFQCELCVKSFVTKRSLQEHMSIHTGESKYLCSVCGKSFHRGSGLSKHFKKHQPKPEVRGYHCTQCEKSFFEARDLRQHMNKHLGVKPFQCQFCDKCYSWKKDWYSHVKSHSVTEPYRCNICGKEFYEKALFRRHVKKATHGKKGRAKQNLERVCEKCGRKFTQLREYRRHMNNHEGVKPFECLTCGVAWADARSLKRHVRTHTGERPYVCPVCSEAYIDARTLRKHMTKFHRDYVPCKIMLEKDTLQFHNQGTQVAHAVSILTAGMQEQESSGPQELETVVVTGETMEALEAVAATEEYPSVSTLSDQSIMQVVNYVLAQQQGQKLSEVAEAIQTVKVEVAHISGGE
# UniProt Q9C0B0: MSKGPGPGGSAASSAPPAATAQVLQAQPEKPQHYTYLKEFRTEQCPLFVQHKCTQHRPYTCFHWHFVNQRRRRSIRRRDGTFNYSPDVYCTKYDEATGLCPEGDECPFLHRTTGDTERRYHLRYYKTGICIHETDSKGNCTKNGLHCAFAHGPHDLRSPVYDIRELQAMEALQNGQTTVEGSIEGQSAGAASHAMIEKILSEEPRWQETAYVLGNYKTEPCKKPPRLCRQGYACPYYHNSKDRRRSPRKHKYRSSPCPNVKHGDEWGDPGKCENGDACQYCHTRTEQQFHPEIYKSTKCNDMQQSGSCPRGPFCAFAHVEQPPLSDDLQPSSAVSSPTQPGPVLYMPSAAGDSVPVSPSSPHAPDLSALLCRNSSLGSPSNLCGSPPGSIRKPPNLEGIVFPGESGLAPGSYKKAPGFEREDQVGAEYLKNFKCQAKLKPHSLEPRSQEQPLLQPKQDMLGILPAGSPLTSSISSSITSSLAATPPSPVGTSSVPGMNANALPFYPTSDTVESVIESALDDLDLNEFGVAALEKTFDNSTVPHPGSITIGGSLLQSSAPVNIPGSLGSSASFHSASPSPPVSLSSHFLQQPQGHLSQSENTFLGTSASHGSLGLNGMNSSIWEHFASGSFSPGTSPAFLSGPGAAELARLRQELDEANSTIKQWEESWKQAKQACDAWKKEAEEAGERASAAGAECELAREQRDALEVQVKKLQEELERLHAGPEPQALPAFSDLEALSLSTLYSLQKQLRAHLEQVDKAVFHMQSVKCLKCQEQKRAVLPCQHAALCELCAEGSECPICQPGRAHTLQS
# UniProt Q9Y3C8: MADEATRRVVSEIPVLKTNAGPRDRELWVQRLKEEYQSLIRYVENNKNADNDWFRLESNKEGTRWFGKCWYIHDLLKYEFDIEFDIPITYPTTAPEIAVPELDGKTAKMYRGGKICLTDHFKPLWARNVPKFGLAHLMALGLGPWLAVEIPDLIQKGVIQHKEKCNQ
# UniProt O75351, whole entry: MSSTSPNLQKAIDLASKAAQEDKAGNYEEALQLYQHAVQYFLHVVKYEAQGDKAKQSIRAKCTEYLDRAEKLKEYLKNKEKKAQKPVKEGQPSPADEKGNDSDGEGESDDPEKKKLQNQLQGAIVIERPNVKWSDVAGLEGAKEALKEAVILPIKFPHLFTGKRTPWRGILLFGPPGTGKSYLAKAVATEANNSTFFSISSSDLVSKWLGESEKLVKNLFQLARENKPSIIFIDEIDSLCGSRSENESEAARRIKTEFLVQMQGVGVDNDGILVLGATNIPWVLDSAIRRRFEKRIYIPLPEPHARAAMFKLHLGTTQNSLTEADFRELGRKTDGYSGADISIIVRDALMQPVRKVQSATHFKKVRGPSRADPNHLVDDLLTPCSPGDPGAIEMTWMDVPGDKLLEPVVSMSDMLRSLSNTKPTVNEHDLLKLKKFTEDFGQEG
# UniProt Q9Y5K5, whole entry: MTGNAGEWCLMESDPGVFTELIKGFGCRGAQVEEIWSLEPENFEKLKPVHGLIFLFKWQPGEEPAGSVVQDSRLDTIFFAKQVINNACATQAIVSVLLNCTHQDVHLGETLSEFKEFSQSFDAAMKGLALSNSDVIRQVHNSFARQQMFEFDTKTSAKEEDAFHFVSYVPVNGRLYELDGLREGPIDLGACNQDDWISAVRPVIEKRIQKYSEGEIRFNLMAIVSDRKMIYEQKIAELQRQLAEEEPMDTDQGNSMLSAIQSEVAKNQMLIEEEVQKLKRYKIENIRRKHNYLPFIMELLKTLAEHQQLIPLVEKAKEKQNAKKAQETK
# This is one part of the list.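 The calls were made as follows: active = dose-dependent thermal stabilisation significant by F-test of dose-response against flat model at 10% FDR; inactive = not significant.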
# Compound: Nc1nc2c(ncn2[C@@H]2O[C@H](COP(=O)(O)OP(=O)(O)OP(=O)(O)O)[C@@H](O)[C@H]2O)c(=O)[nH]1
# Experiment: dose-dependent thermal stabilisation call (2D-TPP, DLPTP, 10% FDR) (binary (1 = stabilised)); higher = stabilised by the compound
# Conditions: system: Jurkat gel-filtered lysate; concentration range 1-500 µM
row,Target,dose-dependent thermal stabilisation call
1,WDR45B (UniProt Q5MNZ6),inactive: 0
2,USP48 (UniProt Q86UV5),active: 1
3,VRK1 (UniProt Q99986),inactive: 0
4,WDR18 (UniProt Q9BV38),inactive: 0
5,YWHAH (UniProt Q04917),inactive: 0
6,ZC3H11A (UniProt O75152),inactive: 0
7,USP22 (UniProt Q9UPT9),inactive: 0
8,WARS (UniProt P23381),inactive: 0
9,UNC119B (UniProt A6NIH7),active: 1
10,UTP14A (UniProt Q9BVJ6),inactive: 0
11,VARS2 (UniProt Q5ST30),inactive: 0
12,ZFAND5 (UniProt O76080),inactive: 0
13,WASF2 (UniProt Q9Y6W5),inactive: 0
14,USP24 (UniProt Q9UPU5),active: 1
15,XPO4 (UniProt Q9C0E2),inactive: 0
16,UBN1 (UniProt Q9NPG3),inactive: 0
17,WASHC5 (UniProt Q12768),inactive: 0
18,USP3 (UniProt Q9Y6I4),inactive: 0

row,Target,dose-dependent thermal stabilisation call
1,ZC4H2 (UniProt Q9NQZ6),inactive: 0
2,ZBTB11 (UniProt O95625),inactive: 0
3,WDR55 (UniProt Q9H6Y2),inactive: 0
4,WWP2 (UniProt O00308),inactive: 0
5,XPO5 (UniProt Q9HAV4),inactive: 0
6,WDR70 (UniProt Q9NW82),inactive: 0
7,UBR4 (UniProt Q5T4S7),inactive: 0
8,ZCCHC11 (UniProt Q5TAX3),inactive: 0
9,UNK (UniProt Q9C0B0),inactive: 0
10,UFC1 (UniProt Q9Y3C8),inactive: 0
11,UBE2Z (UniProt Q9H832),inactive: 0
12,UQCRFS1 (UniProt P47985),inactive: 0
13,ZBTB44 (UniProt Q8NCP5),inactive: 0
14,VPS4B (UniProt O75351),active: 1
15,UBE3C (UniProt Q15386),active: 1
16,VPS26B (UniProt Q4G0F5),inactive: 0
17,UMPS (UniProt P11172),inactive: 0
18,UCHL5 (UniProt Q9Y5K5),inactive: 0

# Nothing new here: an excerpt of the list.
row,Target,dose-dependent thermal stabilisation call
10,UFC1 (UniProt Q9Y3C8),inactive: 0
11,UBE2Z (UniProt Q9H832),inactive: 0
